Laboratory results as given in patent publication US20250378918A1, “Phenotype-Based Chemical Screens” (Nemametrix, priority 2015, published 2025).
For at least one compound, name, drawing or mass did not settle the structure.

Test system: larval zebrafish
Experiment: battery of ten zebrafish behavioral assays (motion index)
Assay type: in vivo
Conditions: antipsychotic drugs, FIG. 1B
Procedure: Haloperidol, a butyrophenone, is known to bind at least 20 molecular targets found in the human brain. To determine how haloperidol affects zebrafish behavior, a battery of ten behavioral assays was developed to compare behavioral profiles from control (DMSO) and haloperidol-treated animals.
A large number of fertilized eggs (up to 20,000 embryos per day) were collected from group matings of Ekkwill zebrafish. Embryos were raised in hatching jars at 28° C. on a 14/10 hour light/dark cycle until 3 days post fertilization (d.p.f.), then transferred to an incubator under the same conditions until 7 d.p.f. Groups of approximately ten larvae (7 d.p.f.) were distributed into the wells of clear flat bottom square well 96-well plates filled with E3 medium (300 μl). Larvae were then incubated at 25° C. on the bench top for one hour prior to chemical treatment and subsequent experiments. All zebrafish protocols were approved by the Institutional Animal Care and Use Committee at Massachusetts General Hospital or at Teleos Therapeutics, LLC.
The Actiprobe library (TimTec Corporation) contains 10,000 compounds dissolved in DMSO at a stock concentration of 1 mg/ml (˜3 mM). […]
Digital video were captured at 25 frames per second using an AVT Pike digital camera. […] To analyze digital video recordings, a motion index was calculated by frame differencing. […]

In the case of `CN1CCN(C2=Nc3cc(Cl)ccc3Nc3ccccc32)CC1` [Clozapine], the haloperidol-like behavioral phenotype is reported as “did not cause a haloperidol-like stimulation phenotype at any concentration tested”.
